Measurements reported in PubChem BioAssay AID1671195 (Yale University, 2021).

Assay: 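Regulators of LDL receptor activity judged by labelled LDL uptake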 (primary screen)
Cell system: human Huh7 hepatoma cells
Reagents: siRNA pool against human genes, 18 nM
Timing: about 2 to 2.5 days of knockdown, then 8 h LDL uptake
Conditions: DiI-labelled LDL at 30 µg/ml for 8 h, in lipoprotein-deficient serum medium
Measurement: 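Fluorescent LDL signal imaged in cells, scaled to the plate median, robust z-score for each replicate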
Reading the numbers: robust z-score: higher = more LDL uptake after knockdown
Hit rule: 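a gene counts as active if at least two replicate z-scores exceed ±2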
Here is one part, drawn at random, of about 22,000 reagents. Of all reagents, about 1,510 (6.9%) were called active. 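Active includes knockdowns raising or lowering LDL uptake; positive z-scores mean more uptake, negative mean less.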 Unmarked entries are inactive. Reagents against one gene are numbered here. Reagent sequences are not shown.

no.	Gene	pool no.	robust z-score, replicate 1	robust z-score, replicate 2	robust z-score, replicate 3
1	AK4	1	0.722	0.96	-0.341
2	PCBP2	1	0.595	1.16	1.59
3	SUV39H1	1	-0.5	-0.429	-0.401
4	KCTD8	1	1.08	1.69	0.716
5	RESP18	1	0.83	0.583	0.787
6	CAB39	1	0.148	0.885	0.709
7	HK3	1	-0.41	0.167	0.457
8	RAB8B	1	-0.789	2.27	0.511
9	ASPHD2	1	-0.432	-0.267	0.127
10	DCD	1	-0.945	-0.673	0.0728
11	HOXA11	1	0.333	0.367	0.404
12	LOC442099 (retired record)	1	-0.359	-0.665	-0.697
13	MGLL	1	-2.18 (active)	-2.38	-2
14	DBT	1	0.44	-0.828	-0.256
15	ZNF280C	1	-0.618	-0.971	0.13
16	RPS6KA2	1	-0.246	0.0143	-0.361
17	P2RX1	1	0.614	0.116	-0.186
18	MMUT	1	0.826	1.01	1.14
19	MGRN1	1	3.41	0.21	1.52
20	CCDC172	1	0.113	-0.505	-0.381
21	FDXR	1	0.0285	1.01	0.0253
22	ZNF610	1	-0.95	-0.926	-0.847
23	CH25H	1	1.83	0.442	1.6
24	TP53I13	1	-1.04	-0.738	-1.67
25	CTNND1	1	-1.44	0.282	0.072
26	NDUFB4	1	0.799	0.293	0.42
27	MINDY3	1	-0.155	-0.342	-0.347
28	OR5B12	1	-1.07	-0.846	-0.814
29	BRPF3	1	-1.08	-1.42	-1.31
30	RPS27AP5	1	1.09	0.387	1.06
31	SNAP91	1	-0.869	-1.43	-2.2
32	KMT2C	1	-0.998	-1.44	-1.42
33	CSGALNACT2P1	1	0.342	0.798	0.735
34	RPL32P3	1	-0.768	-1.09	-0.421
35	RPS10P11	1	0.389	0.0668	0.201
36	SETD2	1	0.201	-0.528	-0.232
37	SLC7A10	1	-0.173	-0.263	-0.207
38	MRM3	1	-1	-1.07	-0.868
39	IL19	1	-1.09	0.964	0.354
40	JMJD1C	1	0.133	0.095	0.0601
41	CLBA1	1	0.559	0.744	-0.191
42	GPR21	1	-1.15	-1.33	-1.02
43	TMEM71	1	-0.852	0.282	-0.285
44	LOC388297 (retired record)	1	0.404	0.776	0.832
45	SCFD1	1	0.307	-0.398	0.51
46	DPY19L2P2	1	-0.893	-0.516	-0.357
47	CDCA5	1	1.49 (active)	2.28	2.32
48	CDCA5	2	-0.684	-0.682	-0.958
49	ZNF551	1	-0.0416	0.203	0.0254
50	CRIP2	1	-0.0972	0.29	0.246
51	ENTR1	1	-0.206	0.468	-0.918
52	LOC440098 (retired record)	1	1.15	0.828	0.863
53	PGAM5	1	-0.414	-0.53	-0.693
54	CD247	1	-0.152	-0.256	-0.137
55	GFAP	1	0.175	-0.5	0.98
56	SCARB1	1	-1.13	-0.513	-0.695
57	IL2	1	4.6 (active)	4.2	5.22
58	AMN	1	-0.987	-1.11	-1.29
59	TNPO2	1	0.27	0.729	-2.48
60	CDH1	1	0.761	0.276	0.587
61	SEMA3G	1	1.73	0.941	0.671
62	TBC1D29P	1	-1.18	-0.699	0.309
63	NABP1	1	1.43	1.37	1.66
64	C12orf60	1	-0.188	0.621	0.767
65	STX3	1	2.75 (active)	1.39	1.93
66	EIF5B	1	-0.691	-0.657	-0.66
67	FGF11	1	-0.075	-0.333	0.0439
68	AXIN1	1	0.33	3.35	1.44

Entries listed so far with an active call:
Gene	pool no.	robust z-score, replicate 1	robust z-score, replicate 2	robust z-score, replicate 3
MGLL	1	-2.18 (active)	-2.38	-2
CDCA5	1	1.49 (active)	2.28	2.32
IL2	1	4.6 (active)	4.2	5.22
STX3	1	2.75 (active)	1.39	1.93
